Results from publication PMC5996148.
Where “and” joins values, the source holds several entries; their conditions need not be identical. Equal entries are not always repeated. The list shows a part of the results.

Legend:
Assay in all cases: protein microarray (ProtoArray v5.0), streptavidin-Alexa Fluor 647
Details in all cases: 3'-biotin; 20 mM Tris (pH 7.5), 5 mM MgCl2, 100 mM KCl, 0.1% Tween-20, A/T-rich and random oligonucleotide blockers; temperature not stated; high values mean tight binding
[1] = tested on: MDP-1 (human)
[2] = tested on: MED21 (human)
[3] = tested on: MED28 (human)
[4] = tested on: MEF2B (human)
[5] = tested on: MEIS3 (human)
[6] = tested on: MFGE8 (human)
[7] = tested on: MGC10334 (human)
[8] = tested on: MGC10600 (human)
[9] = tested on: MGC10955 (human)
[10] = tested on: MGC13057 (human)
[11] = tested on: MGC23985 (human)
[12] = tested on: MGC24103 (human)
[13] = tested on: MGC24125 (human)
[14] = tested on: MGC29506 (human)
[15] = tested on: MGC31957 (human)
[16] = tested on: MGRN1 (human)
[17] = tested on: MIR16 (human)
[18] = tested on: MITF (human)
[19] = tested on: MKNK2 (human)
[20] = tested on: MLC1 (human)

GGTGACAGGGGTATGGGGAGGGG [G4-2 biotinylated (Ct1)]
binding signal [1]: -0.392 z-score and -0.399 z-score
binding signal [2]: -0.395 z-score
binding signal [3]: -0.386 z-score
binding signal [4]: -0.373 z-score
binding signal [5]: -0.397 z-score
binding signal [6]: -0.384 z-score
binding signal [7]: -0.373 z-score
binding signal [8]: -0.376 z-score
binding signal [9]: -0.368 z-score
binding signal [10]: -0.389 z-score
binding signal [11]: -0.386 z-score
binding signal [12]: -0.396 z-score
binding signal [13]: -0.397 z-score
binding signal [14]: -0.377 z-score
binding signal [15]: 5.59 z-score
binding signal [16]: -0.388 z-score
binding signal [17]: -0.379 z-score
binding signal [18]: -0.362 z-score
binding signal [19]: -0.374 z-score
binding signal [20]: -0.378 z-score
